Measured values as given in patent publication US8513195B2, “Treatment of mood and anxiety disorders” (priority 2008, dated 2013).
For at least one compound, name, drawing or mass did not settle the structure.

Columns and labels:
mice [1] = assay: mouse forced swimming test (FST); assay type: in vivo; conditions: i.p., peptide 90 min, desipramine (20 mg/kg) 30 min prior to test, last 4 min of 6-min test
Protocol: (§1) In these tests experimental animals are exposed to inescapable aversive situations (hanging by the tail, being into the water) and in response show alternate periods of agitation and immobility reflecting “attempts to escape” and ‘behavioural resignation” respectively.
(§2) The details of the experimental protocols used are as follows: mice were injected i.p. with vehicle, different doses of the peptide TAT-DEF-Elk-1, of a scrambled peptide (serving as control), of the MEK inhibitor SL327, or with the reference antidepressants fluoxetine (20 mg/kg) or desipramine (20 mg/kg), at appropriate time points before the test trial.
(§3) In the TST, each mouse was tested in an individual cubicle while suspended from a tail hanger with adhesive tape wrapped around its tail (1.5-2 cm from tip) 80 cm above the floor. The trial was conducted for 5 min, during which the duration of immobility was measured automatically (BIOSEB, France). For the FST, mice were placed in clear plastic cylinders (diameter 10 cm; height 25 cm) filled with water at 6 cm height (22-25° C.) for 6 min. A blinded observer scored the duration of immobility manually during the last 4 min of the 6-min test.

mice [2] = assay: mouse tail suspension test (TST); assay type: in vivo; conditions: i.p., peptide 90 min, desipramine and fluoxetine (20 mg/kg) 30 min prior to test, 5 min trial
Protocol: as §1, §2, §3

Which results are given for `N#C/C(=C(/N)Sc1ccc(N)cc1)c1ccccc1C(F)(F)F` [SL327]?
immobility in the FST (mice [1]): had no effect; immobility in the TST (mice [2]): of no effect
